These are yes or no findings as the source states them, for the method shown. In cells and extracts the contact can be indirect. Some binding calls cover weakened binding; strength is not graded here. Where a sequence is shown, tags or fusion partners need not be part of it.
Tests used:
Assay in all cases: co-IP; HEK293 cells transiently co-transfected with V5-tagged HNF-1A (WT or mutant) and Flag-tagged PIASγ; lysed in IP Lysis/Wash Buffer with 20 mM N-ethylmaleimide and protease inhibitors; immunoprecipitation with anti-V5 antibody (Pierce Co-IP kit), immunoblot with anti-Flag and anti-V5
[1] = biological target: HNF-1A triple mutant K205RK273RK506R, V5-tagged (human) (UniProt P20823)
[2] = biological target: hepatocyte nuclear factor-1α (HNF-1A), wild type, V5-tagged (human) (UniProt P20823)
[3] = biological target: HNF-1A K273R, V5-tagged (human) (UniProt P20823)
[4] = biological target: HNF-1A K506R, V5-tagged (human) (UniProt P20823)
[5] = biological target: HNF-1A K205R, V5-tagged (human) (UniProt P20823)

Protein sequences, listed by entry. Tags and fused reporters are not part of them. Lines headed by an entry give the natural chain unless they say otherwise; changes in a name come on top.
UniProt P20823: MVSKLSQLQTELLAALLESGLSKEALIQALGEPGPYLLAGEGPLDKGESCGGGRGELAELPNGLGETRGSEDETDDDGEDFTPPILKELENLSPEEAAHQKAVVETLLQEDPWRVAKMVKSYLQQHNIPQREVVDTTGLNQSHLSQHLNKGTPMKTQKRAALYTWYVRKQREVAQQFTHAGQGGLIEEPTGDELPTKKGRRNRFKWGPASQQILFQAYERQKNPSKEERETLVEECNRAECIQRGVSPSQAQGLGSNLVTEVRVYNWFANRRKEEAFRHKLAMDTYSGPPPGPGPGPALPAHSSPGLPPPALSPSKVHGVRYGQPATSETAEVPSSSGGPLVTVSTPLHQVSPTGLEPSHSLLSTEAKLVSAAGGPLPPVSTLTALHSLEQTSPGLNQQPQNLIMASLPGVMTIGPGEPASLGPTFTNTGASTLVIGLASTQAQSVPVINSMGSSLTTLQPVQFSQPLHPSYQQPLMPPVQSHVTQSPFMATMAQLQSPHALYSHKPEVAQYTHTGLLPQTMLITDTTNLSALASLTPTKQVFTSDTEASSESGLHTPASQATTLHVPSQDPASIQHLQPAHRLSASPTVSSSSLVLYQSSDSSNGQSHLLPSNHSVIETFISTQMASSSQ

binding [1]: binds
binding [2]: binds
binding [3]: binds
binding [4]: binds
binding [5]: binds
B1: protein inhibitor of activated STAT (PIASγ), Flag-tagged (enzyme, UniProt Q8N2W9 1-510)
chain: MAAELVEAKNMVMSFRVSDLQMLLGFVGRSKSGLKHELVTRALQLVQFDCSPELFKKIKELYETRYAKKNSEPAPQPHRPLDPLTMHSTYDRAGAVPRTPLAGPNIDYPVLYGKYLNGLGRLPAKTLKPEVRLVKLPFFNMLDELLKPTELVPQNNEKLQESPCIFALTPRQVELIRNSRELQPGVKAVQVVLRICYSDTSCPQEDQYPPNIAVKVNHSYCSVPGYYPSNKPGVEPKRPCRPINLTHLMYLSSATNRITVTWGNYGKSYSVALYLVRQLTSSELLQRLKTIGVKHPELCKALVKEKLRLDPDSEIATTGVRVSLICPLVKMRLSVPCRAETCAHLQCFDAVFYLQMNEKKPTWMCPVCDKPAPYDQLIIDGLLSKILSECEDADEIEYLVDGSWCPIRAEKERSCSPQGAILVLGPSDANGLLPAPSVNGSGALGSTGGGGPVGSMENGKPGADVVDLTLDSSSSSEDEEEEEEEEEDEDEEGPRPKRRCPFQKGLVPAC

Reference: article PMC6109179
